Patent publication US20150177202A1, “ODOR THRESHOLD TEST” (University of Tennessee Research Foundation, priority 2013, published 2015)

What follows are compounds tested on olfactory system (assay: WUTC Odor Threshold Test (yes-no detection of odorant dilutions in water, signal detection analysis)). Details: combined trials of all 33 subjects.
Assay type: in vivo, human
Excerpt: The present study involved the creation and study of a new test of olfactory ability, deemed the Wheeler University of Tennessee, Chattanooga (WUTC) Odor Threshold Test. This test was developed building upon the methodology behind signal detection theory as it allowed for multiple measures of olfactory ability to be calculated from a single test. These measures are sensitivity, response-bias, and threshold. Unlike currently available threshold tests, the WUTC Odor Threshold Test utilizes a randomized, multiple odor administration along with the presentation of blank concentrations.
A total of thirty three participants (N=33), collected from the UTC campus, were administered the WUTC threshold test.
To make the test, odorant molecules were first dissolved in a purified H2O solvent following their individual levels of solubility to create standard solutions. These standards were the highest concentration for each odorant and the base from which all successive dilutions were made. Liquid odorants ethanol, pinene, and isoamyl acetate were diluted by volume whereas para-cresol and vanillin were diluted by mass. Each standard was rounded to the nearest μL. A total of nine concentrations were made from each standard solution and diluted at a ratio of 1:2. The highest concentration for each odor as well as concentration ranges were chosen based on literature threshold values and a small, preliminary testing period. Solutions (10 mL) of each odorant were diluted and contained in sterilized and dried glass vials with black, screw-top lids (see FIG. 12).
Blanks were made using 10 mL of the same purified H2O used as a solvent for the other odorants. The final test contained 45 vials with odorant concentrations and nine blanks for a total of 54 vials. Tests were remade after either one month or ten administrations had been reached to avoid any amount of loss of odor strength that could result from extended shelf time or exposure to air during administrations. Before reproducing the test, vials underwent sterilization and drying procedures.
Each subject was instructed to complete the provided demographic form (see below). […] Each participant was then seated in a cushioned, high backed chair facing away from a table where each testing vial was placed. In a brief tutorial to the test, subjects were instructed that they would be presented with a number of vials, some containing odors and some not, one at a time. Subjects were then told that they would only be required to smell the contents of the vial and verbally give a “yes” or “no” answer as to whether they detected anything. […] Once the subject felt comfortable with the instructions presented in this tutorial, the actual test was started.
Following a randomly generated number sequence for each subject, a seated test administrator would select the correspondingly numbered test vial for each trial, place it in tongs, and hand it to a second administrator that, like the participant, was facing away from the administration table. […] The “yes” or “no” response given by the subject was recorded by the first administrator and the vial and tongs were returned to him/her by the second administrator. This procedure was repeated for each of the odorant tubes in the test with each tube presented to the participant twice.
With CCO [Ethanol, ethanol] the “Mean response-bias C” value was 0.198.
For CC(=O)OCCC(C)C [Isoamyl Acetate, isoamyl acetate], the “Mean response-bias C” value was 0.31.
With CC1=CCC2CC1C2(C)C [Pinene, L-α-pinene] the “Mean response-bias C” value was 0.194.
In the case of Cc1ccc(O)cc1 [para-cresol], the “Mean response-bias C” value was 0.217.
For COc1cc(C=O)ccc1O [Vanillin, vanillin], the “Mean response-bias C” value was 0.381.
